This is one part of the list. These are further read-outs of the screen, such as a control signal, another cell line or another target. No call is given for them. The list favours compounds with an active or inconclusive main result.
Assay: qHTS Multiplex Assay to Identify Dual Action Probes in a Cell Model of Huntington: Cytotoxicity in HTT Striatal Cells
Details: STHdhQ111/111 striatal cells, serum-free, ATP luminescence, 24 h
Text: NIH Chemical Genomics Center [NCGC] NIH Molecular Libraries Probe Production centers Network [MLPCN] MLPCN Grant: MH084839-01A1 Assay Submitter (PI): Wei Zheng NCGC Assay Overview: Huntington's disease is a neurodegenerative disorder caused by a trinucleotide repeat expansion in Exon 1 of the Huntingtin gene. The CAG trinucleotide encodes glutamine and polyglutamine expansions cause cell death in selective areas of the brain. Huntington polyglutamine repeats have the tendency to form aggregates which are observable in later stages of the disease. The exact nature of the aggregates, whether toxic, protective, or insignificant, is unclear. A stable PC12 cell line containing a gene fusion of Exon 1 of the Huntingtin gene linked to GFP under the control of the inducible ecdysone promoter were used as the cell-based model of Huntington Disease for high throughput screening. Exon 1 of the Huntingtin gene contained an expansion of 103 polyglutamines (Q103) which, when expressed, caused cell death and distinct, bright GFP aggregates. The amount of cell death and the size and intensity of GFP aggregates increased over time and induction level. The cell death were quantified with a measurement of ATP content in the cells. A maximal 40-50% of cell death was observed when the Huntington gene was induced in this cell line. We optimized this assay in a homogeneous 1536 well format. A quantitative high throughput screen (qHTS) was conducted on the PC12 cells which were induced to express the toxic fusion construct. Small molecules which prevented cell death were identified by using a luminescent ATP quantification method (Perkin Elmer's ATPlite). This assay examines influence on cytotoxicity induced by serum deprivation in normal and Huntington striatal cells.
Freshlay passaged STHdhQ7/7 cells and mutant STHdhQ111/111 Huntington striatal cells were plated at a density of 20,000 cells/well in complete media and allowed to recover overnight at 33C. The next day, media was replaced with serum containing media or serum free media containing the compound. After 24 hours of incubation at 33 C, cells were assayed for ATP content using the Cell Titer-GLO ATP assay from Promega (cat # G7571). ATP/Toxicity Assay in Serum Free Media (SFM) (96 well plate format) 1. Plate 20,000 cells/well and incubate the cells in complete (w/serum) media overnight 2. Remove media, wash twice with PBS and add the SFM w/ or w/o the compound 3. Incubate at 33C; cells can be incubated at 39C for a more dramatic effect 4. ATP measurements after […] treatment, per kit protocol

[1] = measured here: Q7/7 cells, at 30 µM
[2] = measured here: Q7/7 cells, at 60 µM
[3] = measured here: Q111/111 cells, at 60 µM
[4] = measured here: Q7/7 cells, FBS, at 30 µM
[5] = measured here: Q7/7 cells, FBS, at 60 µM
[6] = measured here: Q111/111 cells, FBS, at 30 µM
[7] = measured here: Q111/111 cells, FBS, at 60 µM

SMILES	viability change [1] [%]	viability change [2] [%]	viability change [3] [%]	viability change [4] [%]	viability change [5] [%]	viability change [6] [%]	viability change [7] [%]
Cn1nnnc1Sc1ncnc2scc(-c3ccc(F)cc3)c12	42	-74	-99	3	-42	0	-99
Cn1nnnc1Sc1ncnc2scc(-c3ccc(Cl)cc3)c12	-73	-69	-97	-47	-80	-81	-97
Cc1ccc(-c2csc3ncnc(Sc4nnnn4C)c23)cc1	-35	-76	-98	7	-72	9	-88

Source: PubChem BioAssay AID2713 (National Center for Advancing Translational Sciences (NCATS), 2010)
